Data as given in PubChem BioAssay AID1508588 (Peter MacCallum Cancer Centre, 2020).
This is an unselected part of about 18,000 deposited reagents. 790 of all reagents (4.4%) count as active. 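Calls rest on a combination of fold-change classes in drug and vehicle arms, not all shown here.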 A reagent listed more than once was tested more than once; the source does not tell the runs apart. No sequences are given here.

- Screen: 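Genome-wide search for knock-downs that heighten vemurafenib action in melanoma cells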 (primary screen)
- System: human WM266.4 melanoma cells (BRAF V600 mutant)
- Knock-down reagent: siRNA pool against human genes, 40 nM
- Timing: 96 h from transfection to read-out
- Challenge: vemurafenib 300 nM (about IC25), added 48 h after transfection, for 48 h; comparison arm got DMSO vehicle only
- Measurement: 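Ratios to non-targeting siRNA for cell gain, counted as DAPI nuclei after minus before drug and averaged over two replicates, and for absorbance-read medium lactate per cell; both binned into fold-change classes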
- Scale: cell gain with vemurafenib: higher = more cell gain than with non-targeting siRNA; lactate per cell with vemurafenib: higher = more lactate made per cell
- Hit rule: 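Enhancement is called by pairing each knock-down's vehicle-arm and drug-arm fold-change classes for viability or glycolysis; which class combinations qualify is not given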
- Meaning of the calls: active = enhances vemurafenib effect; inactive = no enhancement seen

Gene,cell gain with vemurafenib,lactate per cell with vemurafenib,outcome
TYMS (thymidylate synthetase),0.47,0.98,inactive
SOD2 (superoxide dismutase 2),1,1.12,inactive
MAGEA3 (MAGE family member A3),1.16,0.76,inactive
CFAP58 (cilia and flagella associated protein 58),0.87,0.65,inactive
SMUG1,0.85,1.04,inactive
CT45A2 (cancer/testis antigen family 45 member A2),0.4,1.02,inactive
OR56A3 (olfactory receptor family 56 subfamily A member 3),0.69,0.9,inactive
SLC27A6,0.41,0.68,inactive
CCDC30 (coiled-coil domain containing 30),1.16,0.95,inactive
"PCDHGC4 (protocadherin gamma subfamily C, 4)",0.47,0.55,inactive
SUGCT (succinyl-CoA:glutarate-CoA transferase),0.58,0.99,inactive
PPP1R3D (protein phosphatase 1 regulatory subunit 3D),0.59,1.58,inactive
PPOX (protoporphyrinogen oxidase),0.33,1.12,inactive
POLH (DNA polymerase eta),0.31,1.29,inactive
STAC (SH3 and cysteine rich domain),0.31,1.05,inactive
RNF113B (ring finger protein 113B),0.56,1.6,inactive
ZNF213 (zinc finger protein 213),0.98,0.39,inactive
CLEC6A (C-type lectin domain containing 6A),0.12,1.34,inactive
LGR6 (leucine rich repeat containing G protein-coupled receptor 6),0.67,0.44,active
LGR6 (leucine rich repeat containing G protein-coupled receptor 6),0.82,0.78,active
TTPAL (alpha tocopherol transfer protein like),0.27,1.81,inactive
TSPAN6 (tetraspanin 6),0.57,0.77,inactive
GLUL (glutamate-ammonia ligase),0.82,0.94,inactive
TRMT9B (tRNA methyltransferase 9B (putative)),0.13,1.12,inactive
AKAP14 (A-kinase anchoring protein 14),0.6,0.43,active
LRRC34 (leucine rich repeat containing 34),0.48,0.31,active
TSPAN1 (tetraspanin 1),0.5,1.44,inactive
PAFAH2 (platelet activating factor acetylhydrolase 2),0.81,1.51,inactive
"ALG8 (ALG8 alpha-1,3-glucosyltransferase)",0.98,0.28,inactive
GZMK (granzyme K),0.83,0.44,inactive
ZBTB7B (zinc finger and BTB domain containing 7B),0.79,0.72,inactive
LILRA3 (leukocyte immunoglobulin like receptor A3),1.04,0.84,inactive
MPZ (myelin protein zero),0.47,1.01,inactive
TRAPPC2 (trafficking protein particle complex subunit 2),0.66,0.59,active
OR5V1 (olfactory receptor family 5 subfamily V member 1),0.44,1.08,inactive
SPATS1 (spermatogenesis associated serine rich 1),0.54,1.12,inactive
SSH3 (slingshot protein phosphatase 3),0.74,0.73,inactive
ZBTB37 (zinc finger and BTB domain containing 37),0.56,0.86,inactive
APOC2 (apolipoprotein C2),0.52,1.42,inactive
PRDM6 (PR/SET domain 6),0.88,1.21,inactive
"ROS1 (ROS proto-oncogene 1, receptor tyrosine kinase)",0.52,0.73,inactive
KRTAP5-6 (keratin associated protein 5-6),0.02,0.58,inactive
CELA1 (chymotrypsin like elastase 1),0.37,0.48,active
OR51M1 (olfactory receptor family 51 subfamily M member 1),0.38,1.92,inactive
CASS4 (Cas scaffold protein family member 4),0.35,1.02,inactive
ABCF3 (ATP binding cassette subfamily F member 3),0.43,0.56,inactive
CDH16 (cadherin 16),0.31,2.17,inactive
ARSA (arylsulfatase A),0.29,1.85,inactive
"CYCS (cytochrome c, somatic)",0.44,1.02,inactive
PTPRU (protein tyrosine phosphatase receptor type U),0.41,1.34,inactive
PHF21A (PHD finger protein 21A),1.04,0.76,inactive
AWAT1 (acyl-CoA wax alcohol acyltransferase 1),0.59,1.25,inactive
HERPUD2 (HERPUD family member 2),0.87,0.77,inactive
SLC6A20,0.71,1,inactive
MPDU1 (mannose-P-dolichol utilization defect 1),0.23,0.84,inactive
OR2AK2 (olfactory receptor family 2 subfamily AK member 2),0.33,2.24,inactive

Hits, among the entries above:
Gene,cell gain with vemurafenib,lactate per cell with vemurafenib,outcome
LGR6 (leucine rich repeat containing G protein-coupled receptor 6),0.67,0.44,active
LGR6 (leucine rich repeat containing G protein-coupled receptor 6),0.82,0.78,active
AKAP14 (A-kinase anchoring protein 14),0.6,0.43,active
LRRC34 (leucine rich repeat containing 34),0.48,0.31,active
TRAPPC2 (trafficking protein particle complex subunit 2),0.66,0.59,active
CELA1 (chymotrypsin like elastase 1),0.37,0.48,active

The listing continues:
Gene,cell gain with vemurafenib,lactate per cell with vemurafenib,outcome
UTP25 (UTP25 small subunit processome component),0.25,0.76,inactive
AK1 (adenylate kinase 1),0.4,0.97,inactive
STMN1 (stathmin 1),1.17,0.98,inactive
CADPS2 (calcium dependent secretion activator 2),0.06,2.15,inactive
P2RX6 (purinergic receptor P2X 6),0.48,0.73,inactive
TSPAN32 (tetraspanin 32),0.32,0.56,inactive
ZBTB40 (zinc finger and BTB domain containing 40),0.32,0.6,inactive
TMEM156 (transmembrane protein 156),0.46,0.62,inactive
ZMYM1 (zinc finger MYM-type containing 1),0.6,1.52,inactive
MAGEB18 (MAGE family member B18),0.27,0.56,inactive
FBXO31 (F-box protein 31),0.33,1.28,inactive
TSHB (thyroid stimulating hormone subunit beta),0.75,0.72,inactive
SSX7 (SSX family member 7),0.37,2.38,inactive
LDHAL6B (lactate dehydrogenase A like 6B),0.4,0.84,inactive
PDE1A (phosphodiesterase 1A),0.94,0.71,inactive
TBX21 (T-box transcription factor 21),0.29,1.56,inactive
LEAP2 (liver enriched antimicrobial peptide 2),0.36,0.42,active
"ASAP3 (ArfGAP with SH3 domain, ankyrin repeat and PH domain 3)",0.22,1.21,inactive
IDI2 (isopentenyl-diphosphate delta isomerase 2),0.81,0.96,inactive
IL20RB (interleukin 20 receptor subunit beta),0.81,1.41,inactive
FEZF2 (FEZ family zinc finger 2),0.83,0.12,active
NDUFA6 (NADH:ubiquinone oxidoreductase subunit A6),0.84,0.98,inactive
GYPC (glycophorin C (Gerbich blood group)),0.34,0.34,inactive
SPANXN1 (SPANX family member N1),0.62,0.84,inactive
PRR20A (proline rich 20A),1.02,0.74,inactive
AMZ1 (archaelysin family metallopeptidase 1),0.48,1.3,inactive
ATG14 (autophagy related 14),0.81,1.02,inactive
ARNT (aryl hydrocarbon receptor nuclear translocator),0.56,0.84,inactive
"GIMAP8 (GTPase, IMAP family member 8)",0.63,1.61,inactive
LHFPL2 (LHFPL tetraspan subfamily member 2),0.59,0.62,inactive
SLC27A5,0.95,0.92,inactive
SP110 (SP110 nuclear body protein),0.61,1.23,inactive
PDCL (phosducin like),0.64,1,inactive
RAB11FIP1 (RAB11 family interacting protein 1),0.77,0.46,active
KCNN3 (potassium calcium-activated channel subfamily N member 3),0.34,0.75,inactive
BRD10 (bromodomain containing 10),0.51,1.34,inactive
FZD1 (frizzled class receptor 1),0.14,2.96,inactive
PLCG2 (phospholipase C gamma 2),0.33,0.61,inactive
FGF17 (fibroblast growth factor 17),1.1,0.64,inactive
PACS2 (phosphofurin acidic cluster sorting protein 2),0.58,1.11,inactive
STK33 (serine/threonine kinase 33),1.02,0.94,inactive
FLRT3 (fibronectin leucine rich transmembrane protein 3),0.93,0.7,inactive
GFUS (GDP-L-fucose synthase),0.3,2.5,inactive
COMMD8 (COMM domain containing 8),0.98,1,inactive
PXT1 (peroxisomal testis enriched protein 1),0.55,1.02,inactive
FAM181B (family with sequence similarity 181 member B),1.03,0.89,inactive
AUP1 (AUP1 lipid droplet regulating VLDL assembly factor),0.49,1.21,inactive
SAMM50 (SAMM50 sorting and assembly machinery component),0.48,0.53,inactive
THY1 (Thy-1 cell surface antigen),0.36,1.55,inactive
ASB1 (ankyrin repeat and SOCS box containing 1),0.54,0.6,inactive
HMOX2 (heme oxygenase 2),0.44,1.06,inactive
